Measured values: PMC10864358, “Structural and mechanistic characterization of bifunctional heparan sulfate N-deacetylase-N-sulfotransferase 1” (Nature Communications, 2024)
Results are given in words; binding and its absence hold for the method and conditions named.

Target: solubilized recombinant NDST1 (residues 79-882), bifunctional heparan sulfate N-deacetylase-N-sulfotransferase 1 (human) (UniProt P52848)
Test: cryo-EM structure; NDST1-nAb complexes isolated by SEC, 0.4-0.6 mg/mL in 50 mM Tris-HCl pH 7.5 with 5 mM PAP and 15 mM MgCl2; NDST1 alone classified from the NDST1-nAb13 grid, on which a large proportion of complexes had dissociated; both purified

- binding: no binding
B1: solubilized recombinant NDST1 (residues 79-882), bifunctional heparan sulfate N-deacetylase-N-sulfotransferase 1 (enzyme, UniProt P52848 79-882)
chain: SRTDPLVLVFVESLYSQLGQEVVAILESSRFKYRTEIAPGKGDMPTLTDKGRGRFALIIYENILKYVNLDAWNRELLDKYCVAYGVGIIGFFKANENSLLSAQLKGFPLFLHSNLGLKDCSINPKSPLLYVTRPSEVEKGVLPGEDWTVFQSNHSTYEPVLLAKTRSSESIPHLGADAGLHAALHATVVQDLGLHDGIQRVLFGNNLNFWLHKLVFVDAVAFLTGKRLSLPLDRYILVDIDDIFVGKEGTRMKVEDVKALFDTQNELRAHIPNFTFNLGYSGKFFHTGTNAEDAGDDLLLSYVKEFWWFPHMWSHMQPHLFHNQSVLAEQMALNKKFAVEHGIPTDMGYAVAPHHSGVYPVHVQLYEAWKQVWSIRVTSTEEYPHLKPARYRRGFIHNGIMVLPRQTCGLFTHTIFYNEYPGGSSELDKIINGGELFLTVLLNPISIFMTHLSNYGNDRLGLYTFKHLVRFLHSWTNLRLQTLPPVQLAQKYFQIFSEEKDPLWQDPCEDKRHKDIWSKEKTCDRFPKLLIIGPQKTGTTALYLFLGMHPDLSSNYPSSETFEEIQFFNGHNYHKGIDWYMEFFPIPSNTTSDFYFEKSANYFDSEVAPRRAAALLPKAKVLTILINPADRAYSWYQHQRAHDDPVALKYTFHEVITAGSDASSKLRALQNRCLVPGWYATHIERWLSAYHANQILVLDGKLLRTEPAKVMDMVQKFLGVTNTIDYHKTLAFDPKKGFWCQLLEGGKTKCLGKSKGRKYPEMDLDSRAFLKDYYRDHNIELSKLLYKMGQTLPTWLREDLQNTR
